# The whole screen tested about 580,000 compounds, of which about 6,100 (1.1%) were called active. Inconclusive results, whose numbers are uncertain, are shown with a selection of clear calls. The call rests on the fitted dose curve; in most records, active means well fitted inhibition curve with a large enough effect; inconclusive means small, poorly fitted or top-dose-only effect, or another doubt; inactive means no such curve, though single readings can be large or run the other way. Where the call is inconclusive, the potency comes from a doubtful curve fit.
# Sequences of proteins named here, by UniProt entry; tags and fusion partners are left off. A change or cut given only in a name is not applied to a line headed by its entry.
# UniProt P18054: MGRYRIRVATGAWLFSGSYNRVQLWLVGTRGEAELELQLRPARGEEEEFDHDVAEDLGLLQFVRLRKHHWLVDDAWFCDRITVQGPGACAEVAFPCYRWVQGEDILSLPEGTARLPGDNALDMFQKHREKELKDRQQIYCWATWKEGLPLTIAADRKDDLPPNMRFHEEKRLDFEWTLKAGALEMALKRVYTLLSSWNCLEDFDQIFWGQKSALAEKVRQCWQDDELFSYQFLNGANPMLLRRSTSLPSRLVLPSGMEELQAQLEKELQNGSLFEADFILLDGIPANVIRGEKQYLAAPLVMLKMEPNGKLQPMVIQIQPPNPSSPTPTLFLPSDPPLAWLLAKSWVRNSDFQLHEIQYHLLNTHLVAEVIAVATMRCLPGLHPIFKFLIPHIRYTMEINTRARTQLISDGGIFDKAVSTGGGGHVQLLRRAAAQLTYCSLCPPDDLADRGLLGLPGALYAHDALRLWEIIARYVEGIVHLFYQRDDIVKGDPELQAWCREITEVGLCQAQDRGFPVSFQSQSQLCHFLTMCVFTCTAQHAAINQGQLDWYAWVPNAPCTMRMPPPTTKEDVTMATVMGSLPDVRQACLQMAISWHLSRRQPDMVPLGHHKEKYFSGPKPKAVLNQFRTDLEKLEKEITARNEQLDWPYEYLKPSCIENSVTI
# Target: Polyunsaturated fatty acid lipoxygenase ALOX12 (Homo sapiens) (UniProt P18054)
# Experiment: Primary qHTS assay for inhibitors of human arachidonate 12S-lipoxygenase (ALOX12): Round 2
# Conditions: purified 12hLO, xylenol orange hydroperoxide absorbance; activity change, negative = inhibition: at 108 µM (top of the series) unless noted
# Method in brief: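 Purified human 12hLO (150 nM final) in 25 mM Hepes, 0.01% Triton X-100, pH 7.0 was preincubated 15 min at room temperature with compound. Then 40 uM arachidonic acid was added, 30 min. Hydroperoxide was read by Fe-XO absorbance ratio 573/405 nm.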
# On the % scale 0 is the no-effect control and ±100 the full control effect; potency means the concentration at half of the fitted maximal effect.
SMILES,Potency,"activity change, negative = inhibition"
COCCOC1CN(C2CCN(C(=O)Cc3cccc(F)c3)CC2)C12CCCCC2 (stereo not given),inactive,–
CCSc1nnc(NC(=O)NC(CC)(C(F)(F)F)C(F)(F)F)s1,inactive,–
Cn1cnc(S(=O)(=O)N[C@@H]2[C@@H](Cc3ccccc3)[C@H]3OCC[C@@H]23)c1,"inconclusive: 3.16 µM [inhibitor, single point]",–
Nc1nc(CSC(=S)N2CCOCC2)nc(Nc2ccc(F)cc2)n1,inactive,–
Nc1ncccc1CN1CC[C@@H]2OCC(=O)N(Cc3ccc(O)cc3)[C@H]2CC1,inactive,–
O=C(O)Cn1cc(C(=O)c2cccs2)c2ccccc21,inactive,–
CC(Sc1n[nH]c(N)n1)C(=O)NC1CCCCC1C (stereo not given),"inconclusive: 70.8 µM [inhibitor, partial curve, poor fit]",–
C=CCN1CC(COc2ccc(OC)cc2)OCCS1(=O)=O (stereo not given),"inconclusive: 3.98 µM [inhibitor, full curve, poor fit]",–
O=C(Nc1nccs1)c1ccc(Br)c(S(=O)(=O)N2CCOCC2)c1,inactive,–
N#Cc1ccc(COC(=O)c2ccc(N3CCOCC3)nc2)c(F)c1,"inconclusive: 89.1 µM [inhibitor, single point]",–
Cc1cc(OCC(O)CN2CCc3ccccc3C2)cc(C(C)C)c1 (stereo not given),–,inconclusive: -57% [inhibitor]
Cc1nc(C2CCCN(C(=O)CCC(C)C)C2)cc(N2CCCC2)n1 (stereo not given),inactive,–
CCOC(=O)C1=CCN(S(=O)(=O)c2cccc(Cl)c2)C1c1cccc(F)c1 (stereo not given),inactive,–
Cc1noc(C)c1-c1cc2cc(CN(C)C)oc2c(NCCc2ccccc2)n1,"inconclusive: 50.1 µM [inhibitor, partial curve, poor fit]",–
N#C/C(=C\c1c[nH]c2ccccc12)C(=O)OC1CCCCC1,"inconclusive: 44.7 µM [inhibitor, partial curve, poor fit]",–
COc1cccc(S(=O)(=O)c2cc3ccc(OC)cc3oc2=O)c1,"inconclusive: 5.62 µM [inhibitor, partial curve, poor fit]",–
C/C(=N\Nc1nc2ccccc2[nH]1)c1cc2ccccc2o1,"inconclusive: 44.7 µM [inhibitor, partial curve, poor fit]",–
C#CCOCCOCCOCCNc1nc(N2CCN(C(=O)Cn3cc(CC(C)O)nn3)CC2)nc(N2CCN(C(=O)Cn3cc(CC(C)O)nn3)CC2)n1 (stereo not given),"inconclusive: 50.1 µM [inhibitor, partial curve, poor fit]",–
CC(=O)N1CCN(c2ccc(NC(=S)NC(=O)c3ccccc3)cc2)CC1,inactive,–
COc1cc([N+](=O)[O-])cc2cc(C(=O)N3CCN(C45CC6CC(CC(C6)C4)C5)CC3)c(=O)oc12,"inconclusive: 56.2 µM [inhibitor, partial curve, poor fit]",–
COc1ccc2[nH]c3c(NCCC4=CCCCC4)ncnc3c2c1,"inconclusive: 89.1 µM [inhibitor, partial curve, poor fit]",–
CCN(CC)C(=O)c1sc(NC(=O)C(c2ccccc2)c2ccccc2)c(C#N)c1C,"inconclusive: 12.6 µM [inhibitor, partial curve, poor fit]",–

SMILES,Potency,"activity change, negative = inhibition"
CCOc1cccc(CNC2CCCCC2)c1,inactive,–
O=C(Nc1ccc2oc(-c3ccncc3)nc2c1)c1ccc2c(c1)OCCO2,"inconclusive: 79.4 µM [inhibitor, partial curve, poor fit]",–
NC(=O)CCN1CCN(S(=O)(=O)c2ccc(F)c(F)c2)CC1,"inconclusive: 126 µM [inhibitor, single point]",–
CC(=O)Nc1ccc(-c2nnc(SCc3ccc(C)cc3)n2C)cc1,"inconclusive: 89.1 µM [inhibitor, single point]",–
CCOc1ccc(NC(=O)C2CCCN(S(=O)(=O)c3ccc4[nH]c(=O)ccc4c3)C2)cc1 (stereo not given),"inconclusive: 112 µM [inhibitor, partial curve, poor fit]",–
CCCCC(=O)NC(=S)NNC(=O)c1ccc(OC)cc1,"inconclusive: 50.1 µM [inhibitor, partial curve, poor fit]",–
CCOC(=O)c1c(NC(=O)C2COc3ccccc3O2)sc2c1CCN(Cc1ccccc1)C2 (stereo not given),"inconclusive: 126 µM [inhibitor, partial curve, poor fit]",–
COc1cc(NC(=S)Nc2cccnc2)cc(OC)c1,"inconclusive: 35.5 µM [inhibitor, partial curve, poor fit]",–
O=C(O)CCSc1nnc(SCC(=O)NC2CCS(=O)(=O)C2)s1 (stereo not given),"inconclusive: 39.8 µM [inhibitor, partial curve, poor fit]",–
Cc1ccc(C(=O)Cn2c(=O)n(CCc3ccccc3)c(=O)c3sccc32)cc1,"inconclusive: 35.5 µM [inhibitor, partial curve]",–
CN(Cc1ccccc1)S(=O)(=O)c1ccc(NC(=S)NC(=O)C(C)(C)C)cc1,active: 35.5 µM,–
Cc1ccc(CSC2=Nc3ccccc3C3=NC(CC(=O)NC4CCCCC4)C(=O)N23)cc1 (stereo not given),"inconclusive: 39.8 µM [inhibitor, partial curve, poor fit]",–
O=C(O)C=Cc1ccc(Cn2ccnc2)cc1,"inconclusive: 39.8 µM [inhibitor, partial curve, poor fit]",–
COc1ccc(-c2nc(NC(=O)c3ccccc3)sc2-c2ccc([N+](=O)[O-])cc2)cc1,inactive,–
CN(C)c1cccc(C(=O)Nc2ccc(-c3ccccc3)cc2)c1,inactive,–
CCOc1ccc(-c2noc(-c3nnn(-c4ccccc4OCC)c3N)n2)cc1,inactive,–
N#CCCN1CCCC1CCc1ccccc1 (stereo not given),"inconclusive: 35.5 µM [inhibitor, partial curve, poor fit]",–
O=c1oc2ccccc2c(O)c1/C=C1\C=Nc2ccccc21,"inconclusive: 3.98 µM [inhibitor, full curve, poor fit]",–
COc1ccc(CNC(=O)c2cc(Nc3ccc(C)cc3C)nc3ccccc23)cc1,"inconclusive: 56.2 µM [inhibitor, partial curve, poor fit]",–
N#CC1=C(N)C(C#N)(C#N)[C@H](c2cccnc2)[C@H]2CN(C(=O)OCc3ccccc3)CC=C12,inactive,–
Nc1ccc(S(=O)(=O)Nc2nccc(/C=C/c3ccc([N+](=O)[O-])cc3)n2)cc1,"inconclusive: 112 µM [inhibitor, single point]",–
Cc1ccc2nc(-c3ccc(NC(=O)COc4ccccc4)cc3)sc2c1,inactive,–

# Rewritten bar-delimited: entries from further up
SMILES | Potency | activity change, negative = inhibition
COCCOC1CN(C2CCN(C(=O)Cc3cccc(F)c3)CC2)C12CCCCC2 (stereo not given) | inactive | –
O=C(O)Cn1cc(C(=O)c2cccs2)c2ccccc21 | inactive | –
C=CCN1CC(COc2ccc(OC)cc2)OCCS1(=O)=O (stereo not given) | inconclusive: 3.98 µM [inhibitor, full curve, poor fit] | –
O=C(O)CCSc1nnc(SCC(=O)NC2CCS(=O)(=O)C2)s1 (stereo not given) | inconclusive: 39.8 µM [inhibitor, partial curve, poor fit] | –
COc1ccc(-c2nc(NC(=O)c3ccccc3)sc2-c2ccc([N+](=O)[O-])cc2)cc1 | inactive | –

# The list continues.

SMILES,Potency,"activity change, negative = inhibition"
Cc1ccc(C(=O)O/N=C(\N)c2cccc([N+](=O)[O-])c2)cc1,inactive,–
Cc1cc(Br)ccc1NC(=O)CN(C)C(=O)Cn1c(=O)cnc2ccccc21,"inconclusive: 35.5 µM [inhibitor, partial curve, poor fit]",–
CCOC(=O)Cn1cc(CN2C(C(=O)OC)CN(Cc3ccc(C)cc3)CCS2(=O)=O)nn1 (stereo not given),"inconclusive: 14.1 µM [inhibitor, partial curve, poor fit]",–
CCOC(=O)c1ccc(NC(=O)CSc2nc(=O)n3cccc(C)c3n2)cc1,"inconclusive: 112 µM [inhibitor, single point]",–
O=C(COC(=O)c1ccc2c(c1)NC(=O)CS2)NCc1ccccc1,"inconclusive: 112 µM [inhibitor, single point]",–
Cc1ccc([S+](=O)([O-])NC[C@@H]2CC[C@H]3C[C@@H]2C3(C)C)cc1,"inconclusive: 112 µM [inhibitor, partial curve, poor fit]",–
CN(C)c1ccc(C2(c3ccc(N(C)C)cc3)OC(=O)c3cc(N)ccc32)cc1,"inconclusive: 89.1 µM [inhibitor, single point]",–
CCOc1cc2c3c(c1)C1(C(=O)N3C(C)(C)C=C2C)C(C#N)=C(N)Oc2cc(O)ccc21 (stereo not given),"inconclusive: 89.1 µM [inhibitor, single point]",–
CC(=O)Oc1ccc2c(=O)oc(-c3ccccc3C)nc2c1,"inconclusive: 39.8 µM [inhibitor, partial curve, poor fit]",–
COCc1ccc(CN2CCCC(CCC(=O)NCc3ccc(C)o3)C2)o1 (stereo not given),inactive,–
C=CCOc1cccc(-c2nnc(CCC(=O)NC(C)c3ccccc3)c(=O)[nH]2)c1 (stereo not given),inactive,–
COCCCN(CC(=O)Nc1ccc(N2CCOCC2)cc1)S(=O)(=O)c1ccc(Cl)cc1,inactive,–
CCCCCCSc1ccc([C@H]2N[C@@](C)(C(=O)OC)[C@H]3C(=O)N(C)C(=O)[C@@H]23)cc1,"inconclusive: 50.1 µM [inhibitor, partial curve, poor fit]",–
Cc1ccc(S(=O)(=O)NN(Cc2ccccc2)Cc2ccccc2)cc1,active: 15.8 µM,–
O=C1Nc2ccc(-c3ccccc3)cc2C(=O)N2CCN(C(=O)c3ccccc3)C[C@H]12,"inconclusive: 50.1 µM [inhibitor, partial curve]",–
CS(=O)(=O)c1cccc(C(=O)N2CCN(C(=O)c3ccccc3)CC2)c1,inactive,–
Cc1ccc(S(=O)(=O)CCC(=O)c2cccc([N+](=O)[O-])c2)cc1,"inconclusive: 50.1 µM [inhibitor, partial curve, poor fit]",–
S=C(CSc1ccccc1)Nc1cccc2ccccc12,"inconclusive: 50.1 µM [inhibitor, partial curve, poor fit]",–
CC(C)(C)c1ccc(CC(=O)N2CCC2(C)C(=O)NS(=O)(=O)Cc2ccccc2)cc1 (stereo not given),inactive,–
CC(C)(C)OC(=O)NCCCCCNC(=O)c1nc[nH]c1C(=O)NCc1ccc(CNC(=O)OC(C)(C)C)cc1,inactive,–
S=C(NCc1ccccc1)Nc1ccc2ccccc2c1,"inconclusive: 44.7 µM [inhibitor, partial curve, poor fit]",–

# From PubChem BioAssay AID1671190 (National Center for Advancing Translational Sciences (NCATS), 2021)
